In patent publication US9254288B2, “Susceptibility of tumors to tyrosine kinase inhibitors and treatment thereof” (THE TRANSLATIONAL GENOMICS RESEARCH INSTITUTE, priority 2012, dated 2016):
At least one compound was matched to its structure with a doubt left.

Experiments:
EI = experiment: Endometrial cancer cell viability, EI; type: cell-based
[1] = tested on: JHUEM-2 cells expressing FGFR2N550K; experiment: JHUEM-2 cells stably expressing FGFR2N550K, cell viability; type: cell-based
EJ = experiment: Endometrial cancer cell viability, EJ; type: cell-based
[2] = tested on: endometrial cancer cell lines; experiment: Endometrial cancer cell line panel viability (CyQUANT); conditions: FGFR2 mutant and wild-type endometrial cancer lines, 72 hours

CN1CCN(c2ccc3nc(-c4c(N)c5c(F)cccc5[nH]c4=O)[nH]c3c2)CC1 [dovitinib, 4-amino-5-fluoro-3-[5-(4-methylpiperazin-1-yl)-1H-benzimidazol-2-yl]quin-olin-2(1H)-one]
relative resistance versus most sensitive lines (EI): relative resistance
effect of FGFR2N550K expression on sensitivity [1]: did not affect the sensitivity
relative resistance versus most sensitive lines (EJ): relative resistance
order of sensitivity across the cell line panel [2]: ponatinib (most sensitive), then dovitinib, then PD173074 (least sensitive)
